Reference: patent publication US20190269801A1 (CEDARS-SINAI MEDICAL CENTER, priority 2016, published 2019)
Read-outs that look alike come from different tables or passages of the source.

Columns and labels:
Naive C4-2B PC cells = experiment: Growth inhibition of naive C4-2B PC cells cultured as 2D monolayer; details: Homo sapiens
Resistant C4-2B PC cells = experiment: Growth inhibition of AA/EZ resistant C4-2B PC cells cultured as 2D monolayer; format: cell-based; details: Homo sapiens

SMILES: CNC(=O)c1ccc(N2C(=S)N(c3ccc(C#N)c(C(F)(F)F)c3)C(=O)C2(C)C)cc1F [EZ, enzalutamide]
- IC50 (Naive C4-2B PC cells; read-out: EZ IC50, Naive C4-2B, 2D monolayer, NIR-SM 0 μM): 7.69 µM
- IC50 (Naive C4-2B PC cells; read-out: EZ IC50, Naive C4-2B, 2D monolayer, NIR-SM 0.25 μM): 1.5 µM
- IC50 (Resistant C4-2B PC cells; NIR-SM 0 μM): 10.7 µM
- IC50 (Resistant C4-2B PC cells; NIR-SM 0.25 μM): 1.56 µM
